Source: the supplement of paper PMC10849652
This is one part of the list. Residues, ends and D or L forms follow the SMILES beside them. *: point of attachment. Cbz = O=C(OCc1ccccc1)*

Protein sequences, listed by entry. Tags and fused reporters are not part of them. Lines headed by an entry give the natural chain unless they say otherwise; changes in a name come on top.
UniProt Q9NRR4: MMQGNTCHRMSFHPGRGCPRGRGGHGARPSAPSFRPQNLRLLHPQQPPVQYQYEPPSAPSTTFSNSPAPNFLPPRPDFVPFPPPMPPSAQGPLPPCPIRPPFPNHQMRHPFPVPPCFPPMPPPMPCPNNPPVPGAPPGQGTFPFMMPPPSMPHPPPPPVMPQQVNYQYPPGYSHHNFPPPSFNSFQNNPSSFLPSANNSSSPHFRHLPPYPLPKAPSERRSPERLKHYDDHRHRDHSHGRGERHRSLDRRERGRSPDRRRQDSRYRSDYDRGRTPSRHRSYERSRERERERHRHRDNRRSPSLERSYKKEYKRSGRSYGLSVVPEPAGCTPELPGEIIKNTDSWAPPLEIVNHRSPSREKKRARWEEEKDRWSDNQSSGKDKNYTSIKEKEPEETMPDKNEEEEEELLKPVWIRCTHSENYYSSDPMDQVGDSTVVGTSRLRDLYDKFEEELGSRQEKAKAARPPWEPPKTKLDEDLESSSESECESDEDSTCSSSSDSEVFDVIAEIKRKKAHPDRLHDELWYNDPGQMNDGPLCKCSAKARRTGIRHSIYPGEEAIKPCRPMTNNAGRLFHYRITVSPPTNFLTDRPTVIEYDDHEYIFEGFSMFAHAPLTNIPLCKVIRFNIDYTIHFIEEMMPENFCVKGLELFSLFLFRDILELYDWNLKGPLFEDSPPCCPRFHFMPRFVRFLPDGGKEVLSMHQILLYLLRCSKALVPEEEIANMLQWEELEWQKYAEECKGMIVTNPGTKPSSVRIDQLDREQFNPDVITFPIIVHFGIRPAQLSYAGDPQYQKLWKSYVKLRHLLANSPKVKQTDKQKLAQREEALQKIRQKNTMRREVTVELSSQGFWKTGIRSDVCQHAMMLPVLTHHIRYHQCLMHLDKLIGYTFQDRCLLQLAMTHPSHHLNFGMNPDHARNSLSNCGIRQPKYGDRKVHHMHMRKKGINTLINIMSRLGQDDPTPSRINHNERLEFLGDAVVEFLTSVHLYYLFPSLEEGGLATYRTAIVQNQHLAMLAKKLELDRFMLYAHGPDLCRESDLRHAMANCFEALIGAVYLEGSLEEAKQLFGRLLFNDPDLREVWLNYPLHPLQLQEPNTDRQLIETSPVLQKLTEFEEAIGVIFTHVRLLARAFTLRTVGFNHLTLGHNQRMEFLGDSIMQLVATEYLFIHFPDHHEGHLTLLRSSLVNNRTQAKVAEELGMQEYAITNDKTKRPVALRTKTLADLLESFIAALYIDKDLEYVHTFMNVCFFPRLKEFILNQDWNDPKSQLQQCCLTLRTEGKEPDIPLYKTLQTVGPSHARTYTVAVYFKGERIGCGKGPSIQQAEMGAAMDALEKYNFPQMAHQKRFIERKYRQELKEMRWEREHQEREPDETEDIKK
UniProt Q6P1R4: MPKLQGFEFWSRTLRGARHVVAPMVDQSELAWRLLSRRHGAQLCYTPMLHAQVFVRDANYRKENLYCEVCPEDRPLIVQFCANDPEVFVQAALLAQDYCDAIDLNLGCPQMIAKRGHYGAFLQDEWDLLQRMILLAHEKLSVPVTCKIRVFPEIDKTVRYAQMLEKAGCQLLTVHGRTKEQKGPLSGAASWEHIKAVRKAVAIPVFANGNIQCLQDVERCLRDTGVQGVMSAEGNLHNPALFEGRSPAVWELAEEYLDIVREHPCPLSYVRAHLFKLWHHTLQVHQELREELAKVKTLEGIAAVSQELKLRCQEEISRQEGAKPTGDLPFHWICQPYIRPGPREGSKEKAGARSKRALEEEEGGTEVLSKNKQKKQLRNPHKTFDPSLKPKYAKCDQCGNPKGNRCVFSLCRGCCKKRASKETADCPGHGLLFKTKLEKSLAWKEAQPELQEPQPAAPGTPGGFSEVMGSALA
UniProt Q5SXM8: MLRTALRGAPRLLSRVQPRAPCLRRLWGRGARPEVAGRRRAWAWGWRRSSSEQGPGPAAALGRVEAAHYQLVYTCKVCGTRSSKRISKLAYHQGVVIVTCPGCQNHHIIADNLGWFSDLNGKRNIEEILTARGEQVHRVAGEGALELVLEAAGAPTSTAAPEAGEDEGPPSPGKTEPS
UniProt O14576, whole entry, looked up: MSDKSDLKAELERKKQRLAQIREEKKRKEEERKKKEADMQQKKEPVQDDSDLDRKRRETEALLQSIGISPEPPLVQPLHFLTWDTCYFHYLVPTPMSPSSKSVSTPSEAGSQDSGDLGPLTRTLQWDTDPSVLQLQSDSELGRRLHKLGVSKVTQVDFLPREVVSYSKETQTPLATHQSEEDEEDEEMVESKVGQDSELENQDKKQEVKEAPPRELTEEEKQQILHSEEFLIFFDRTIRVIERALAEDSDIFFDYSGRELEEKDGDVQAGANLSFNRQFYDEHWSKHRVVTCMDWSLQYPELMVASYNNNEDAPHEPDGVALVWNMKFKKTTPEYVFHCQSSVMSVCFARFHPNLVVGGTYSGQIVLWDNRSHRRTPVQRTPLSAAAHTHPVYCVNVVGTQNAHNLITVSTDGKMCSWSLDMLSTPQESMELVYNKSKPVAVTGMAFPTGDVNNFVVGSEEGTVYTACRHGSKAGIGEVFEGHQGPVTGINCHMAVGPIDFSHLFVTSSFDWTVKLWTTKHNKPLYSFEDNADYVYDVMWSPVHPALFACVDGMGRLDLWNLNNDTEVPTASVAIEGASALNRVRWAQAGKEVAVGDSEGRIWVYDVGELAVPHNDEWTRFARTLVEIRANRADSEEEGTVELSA
UniProt Q9Y5T4: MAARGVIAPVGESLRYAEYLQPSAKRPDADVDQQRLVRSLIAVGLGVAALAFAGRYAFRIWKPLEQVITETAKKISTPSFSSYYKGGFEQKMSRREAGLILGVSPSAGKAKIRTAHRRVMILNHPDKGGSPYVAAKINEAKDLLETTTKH
UniProt P51808: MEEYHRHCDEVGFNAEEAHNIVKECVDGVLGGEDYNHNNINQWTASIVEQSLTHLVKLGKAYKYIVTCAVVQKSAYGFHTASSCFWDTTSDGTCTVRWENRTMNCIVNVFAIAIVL
UniProt Q8TCX1: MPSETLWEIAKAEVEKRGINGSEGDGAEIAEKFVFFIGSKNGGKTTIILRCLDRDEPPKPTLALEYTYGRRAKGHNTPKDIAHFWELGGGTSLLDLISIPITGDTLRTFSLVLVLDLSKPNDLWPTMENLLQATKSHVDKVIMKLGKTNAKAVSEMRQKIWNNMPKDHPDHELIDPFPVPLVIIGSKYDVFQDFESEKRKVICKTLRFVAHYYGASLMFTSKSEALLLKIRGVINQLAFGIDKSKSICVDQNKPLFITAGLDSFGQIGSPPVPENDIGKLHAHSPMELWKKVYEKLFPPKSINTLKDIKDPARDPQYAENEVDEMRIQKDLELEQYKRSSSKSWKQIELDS
UniProt Q8WTR2: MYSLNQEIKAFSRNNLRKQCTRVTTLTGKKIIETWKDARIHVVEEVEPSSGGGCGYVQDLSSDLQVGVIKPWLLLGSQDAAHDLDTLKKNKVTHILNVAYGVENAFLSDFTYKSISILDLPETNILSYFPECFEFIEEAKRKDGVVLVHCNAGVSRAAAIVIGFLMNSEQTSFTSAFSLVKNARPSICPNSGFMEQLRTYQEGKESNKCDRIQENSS
UniProt Q9UBS3: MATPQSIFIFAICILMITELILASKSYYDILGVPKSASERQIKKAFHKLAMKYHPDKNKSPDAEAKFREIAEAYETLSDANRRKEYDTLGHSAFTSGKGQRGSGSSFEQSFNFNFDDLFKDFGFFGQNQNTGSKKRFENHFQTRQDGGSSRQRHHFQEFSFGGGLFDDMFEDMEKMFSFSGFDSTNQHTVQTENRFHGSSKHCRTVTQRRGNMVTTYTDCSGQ

Key:
Test in all cases: log2 fold change, soluble protein after heating vs DMSO (PISA); higher = thermal stabilisation; K562 cells, 10 uM, 30 min; active = over 0.2 and 3.5 SD of the protein, either way, in both replicates (recomputed)
[1] = compound: CC(=O)c1cnc2ccc(-c3cc(Cl)c(O)c(Cl)c3)nc2c1N[C@H]1CC[C@H](CN(C)C)CC1
Procedure, shortened: (§1)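 Soluble protein was defined as the supernatant after 21,000xg for 90 min. It came from K562 cells at 2×10^6 cells/mL given 10 μM compound for 30 min, heated in aliquots for 3 min across 48°C-58°C, pooled, and extracted in PBS with 0.5% NP-40 at 4°C, and was quantified by TMTpro 16plex LC-MS/MS with equalised channel sums. Thermal stability against control samples, from duplicates, is reported as log2 fold change.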

[2] = compound: CC(C)C1=C2N=C(C=C(N2N=C1)NCC3=CC=CC=C3)NCCCCCCN
Procedure, shortened: as §1

[3] = compound: CC1=C(C2=C(C=C1)C(=O)C3=CC=CC=C3N2CCCN)C
Procedure, shortened: as §1

[4] = compound: CC1=CC=C(C=C1)SC2=C3C=C(SC3=CN=C2)C(=O)N
Procedure, shortened: as §1

[5] = compound: CCCS(=O)(=O)Nc1ccc(F)c(C(=O)c2c[nH]c3ncc(Cl)cc23)c1F
Procedure, shortened: as §1

[6] = compound: CCCc1cc(C)[nH]c(=O)c1CNC(=O)c1cc(-c2ccnc(N3CCN(C)CC3)c2)cc2c1cnn2C(C)C
Procedure, shortened: as §1

givinostat = compound: CCN(CC)Cc1ccc2cc(COC(=O)Nc3ccc(C(=O)NO)cc3)ccc2c1 [givinostat]
Procedure, shortened: as §1

[7] = compound: CC(C)(O)CC(=O)NCCn1ccc2ncnc(Nc3ccc(Oc4cccc(C(F)(F)F)c4)c(Cl)c3)c21
Procedure, shortened: as §1

Nexturastat A = compound: CCCCN(Cc1ccc(C(=O)NO)cc1)C(=O)Nc1ccccc1 [Nexturastat A]
Procedure, shortened: as §1

ralimetinib = compound: CC(C)(C)Cn1c(N)nc2ccc(-c3[nH]c(C(C)(C)C)nc3-c3ccc(F)cc3)nc21 [ralimetinib]
Procedure, shortened: as §1

[8] = compound: CC(C)C[C@@H](C=O)NC(=O)[C@H](CC(C)C)NC(=O)[C@H](CC(C)C)NC(=O)OCc1ccccc1
Procedure, shortened: as §1

[9] = compound: CC1=C(C=C(C=C1)NC(=O)C2=CC(=CC=C2)N(C)C)NC(=O)C3=CC=C(C=C3)O
Procedure, shortened: as §1

[10] = compound: CC1=C(C(CC(=O)N1)C2=CC=C(C=C2)C(F)(F)F)C(=O)NC3=C(C=C4C(=C3)C=NN4)F
Procedure, shortened: as §1

ibrutinib = compound: C=CC(=O)N1CCC[C@@H](n2nc(-c3ccc(Oc4ccccc4)cc3)c3c(N)ncnc32)C1 [ibrutinib]
Procedure, shortened: as §1

[11] = compound: CC1=C(C=C(C=C1)NC(=O)C2=CC(=CC=C2)C(C)(C)C#N)NC3=CC4=C(C=C3)N=CN(C4=O)C
Procedure, shortened: as §1

vemurafenib = compound: CCCS(=O)(=O)Nc1ccc(F)c(C(=O)c2c[nH]c3ncc(-c4ccc(Cl)cc4)cc23)c1F [vemurafenib]
Procedure, shortened: as §1

barasertib = compound: CCN(CCCOc1ccc2c(Nc3cc(CC(=O)Nc4cccc(F)c4)[nH]n3)ncnc2c1)CCOP(=O)(O)O [barasertib]
Procedure, shortened: as §1

IRAK-1-4 Inhibitor I = compound: C1COCCN1CCN2C3=CC=CC=C3N=C2NC(=O)C4=CC(=CC=C4)[N+](=O)[O-] [IRAK-1-4 Inhibitor I]
Procedure, shortened: as §1

pinometostat = compound: CC(C)N(C[C@H]1O[C@@H](n2cnc3c(N)ncnc32)[C@H](O)[C@@H]1O)[C@H]1C[C@@H](CCc2nc3cc(C(C)(C)C)ccc3[nH]2)C1 [pinometostat]
Procedure, shortened: as §1

[12] = compound: CC1=NC(=CC=C1)C2=C(N=C(N2)C(C)(C)C)C3=CC4=NC=CN=C4C=C3
Procedure, shortened: as §1

Measured: log2 fold change

DRAP1 (UniProt E9PQX9)
inactive: [1] 0.018 | [2] 0.171 | [3] 0.137 | [4] 0.019 | [5] 0.037 | [6] -0.604 | givinostat 0.154

DROSHA (UniProt Q9NRR4)
inactive: [1] 0.07 | [7] -0.186 | [3] -0.1 | Nexturastat A 0.2

DUS1L (UniProt Q6P1R4)
inactive: ralimetinib -0.083 | [2] -0.04 | [8] 0.262 | [3] -0.001 | [9] 0.151 | [6] -0.26 | givinostat -0.152

DNPH1 (UniProt H0Y8X4)
inactive: [1] 0.027 | ralimetinib 0.048 | [2] -0.023 | [8] 0.347 | [10] 0.261 | [3] 0.122 | [9] 0.274 | [4] -0.092 | [5] 0.016 | [6] -0.087 | givinostat 0.029

DNLZ (UniProt Q5SXM8)
inactive: ibrutinib 0.065 | [1] 0.068 | ralimetinib -0.177 | [7] 0.03 | [2] 0.095 | [8] 0.041 | [10] 0.024 | [3] -0.073 | [11] -0.114 | [9] -0.025 | [4] -0.098 | Nexturastat A -0.267 | vemurafenib 0.022 | [5] -0.056 | [6] -0.024 | givinostat -0.014 | barasertib -0.08

DNAJB14 (UniProt H7C494)
inactive: IRAK-1-4 Inhibitor I 0.097 | pinometostat -0.162 | [10] 0.044 | [4] -0.172 | [12] 0.112 | vemurafenib -0.069 | [5] 0.013 | [6] 0.094

DYNC1I1 (UniProt O14576)
inactive: ralimetinib 0.09 | [7] 0.006 | [8] 0.004 | [9] -0.189 | [4] -0.088 | Nexturastat A 0.347 | vemurafenib 0.078 | [5] 0.022

DOCK11, A0A0J9YW64
inactive: IRAK-1-4 Inhibitor I -0.082 | pinometostat 0.352 | [11] 0.192 | [12] -0.169 | [6] -0.088

DNAJC15 (UniProt Q9Y5T4)
inactive: [11] -0.053 | [4] 0.127 | [5] 0.024

DOCK1 (UniProt Q14185)
inactive: ibrutinib -0.088 | [1] -0.196 | ralimetinib -0.442 | [7] -0.068 | [2] -0.057 | [8] 0.012 | [11] 0.049 | [9] -0.064 | [4] -0.063 | Nexturastat A -0.004 | vemurafenib -0.18 | [5] -0.047 | givinostat 0.095 | barasertib 0.123

DYNLT3 (UniProt P51808)
inactive: ibrutinib 0.065 | [1] 0.028 | [10] 0.045 | barasertib -0.018

DYNC2LI1 isoform 2 (UniProt Q8TCX1)
inactive: ralimetinib -0.129 | [7] 0 | [2] -0.17 | [8] 0.182 | [11] 0.02 | [9] -0.167 | [4] 0.018 | Nexturastat A -0.148 | vemurafenib 0.019 | [5] -0.044 | [6] -0.024 | givinostat -0.138

DUSP19 (UniProt Q8WTR2)
inactive: [2] -0.316 | givinostat -0.022

DNAJB9 (UniProt Q9UBS3)
inactive: [2] 0.097 | givinostat 0.163
